Measured values reported in US20250381204A1, “A CANNABINOID MIXTURE WITH TERPENES FOR THE TREATMENT OF ANXIETY” (priority 2022, published 2025).

Tested on: larvae
Experiment: Forced light/dark transition assay screening hemp extracts, diazepam and caffeine (Example 5)
Assay type: in vivo, zebrafish
Details: last minute of baseline, dark
Experimental: Our forced light/dark transition protocol was as follows. First, there was 10 minutes of total darkness (which we refer to as the baseline period; compounds were introduced at the beginning of the baseline period, and 10 minutes were allotted to allow for drug absorption and acclimation). Next, there was a period of five minutes of light exposure followed by five minutes of dark exposure, repeated three times. Finally, there was an additional five minutes of dark exposure.
A variety of statistical techniques were used to address our hypotheses about the potential anxiolytic and anxiogenic effects of four compounds. In outline: • 1) Overall models were carried out using linear mixed-effect models • 2) Deliberate pairwise comparisons between controls and dosages of interest were carried out using appropriate two-sample comparison tests
All statistical analyses were carried out in R version 3.2.2 (R core developer team). Overall models were linear mixed-effects models (LMMs), and were fitted using the Ime4 package (Bates, Machler, Bolker, & Walker, 2015). Data were transformed as indicated to fit the assumptions of LMMs. Posthoc tests were performed using the multcomp package in R. Data distributions were initially assessed visually and model diagnostics were subsequently checked to assure appropriate fits. […]

## CN1C(=O)CN=C(c2ccccc2)c2cc(Cl)ccc21 [diazepam]
  dosage as predictor of mean distance moved after ~10 minutes of exposure (LMM): This model was significant
